Measured values reported in patent US20240158504A1.
No constants are given. Whether binding was seen depends on the method and setting. Some results given as binding are weak or reduced against the parent protein; the word gives no strength.

Target: Cynomolgus Macaque PD-L1 (Cynomolgus Macaque) (UniProt G7PSE7)
Experiment: Gator instrument; summary of Table 7

- binding: binds
Substance: BJ-005-P1 (from UniProt P0DOX7 1-214)
